# In the supplement of paper PMC8728848:
# The list shows a part of the results.
# B1: CD4 (Rattus norvegicus), P05540 (protein)
# chain: MCRGFSFRHLLPLLLLQLSKLLVVTQGSTSITAYKSEGESAEFSFPLNLGEESLQGELRWKAEKAPSSQSWITFSLKNQKVSVQKSTSNPKFQLSETLPLTLQIPQVSLQFAGSGNLTLTLDRGILYQEVNLVVMKVTQPDSNTLTCEVMGPTSPKMRLILKQENQEARVSRQEKVIQVQAPEAGVWQCLLSEGEEVKMDSKIQVLSKGLNSGGGSGGGTGGGDLAPQMLRELQETNAALQDVRELLRQQVKEITFLKNTVMECDACGLDRNLPPLAPLGPHPETLVKVKDAEDQLGARVGYIELDLNSGKILESFRPEERFPMMSTFKVLLCGAVLSRIDAGQEQLGRRIHYSQNDLVEYSPVTEKHLTDGMTVRELCSAAITMSDNTAANLLLTTIGGPKELTAFLHNMGDHVTRLDRWEPELNEAIPNDERDTTMPVAMATTLRKLLTGELLTLASRQQLIDWMEADKVAGPLLRSALPAGWFIADKSGAGERGSRGIIAALGPDGKPSRIVVIYTTGSQATMDERNRQIAEIGASLIKHW
# What was measured:
# Test in all cases: glycan array binding signal (z-score within array); higher = stronger binding
# Conditions in all cases: glycan notation: IUPAC condensed, linker removed
# [1] = biological target: Neu5Ac(a2-3)Gal(b1-4)GlcNAc(b1-6)GalNAc
# Outline: (§1)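 Columns mapping to the same glycan were averaged after glycan names were converted to IUPAC-condensed notation. The data come from 3228 arrays in the Consortium for Functional Glycomics database, limited to those with an available protein sequence. Binding is reported as a within-array Z-score averaged across arrays of one protein sequence and across linkers.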
# [2] = biological target: Neu5Ac(a2-3)Gal(b1-4)GlcNAc(b1-6)[Gal(b1-3)]GalNAc
# Outline: as §1
# [3] = biological target: Neu5Ac(a2-3)Gal(b1-4)GlcNAc(b1-6)[Neu5Ac(a2-3)Gal(b1-3)]GalNAc
# Outline: as §1
# [4] = biological target: Neu5Ac(a2-3)Gal(b1-4)GlcNAc6S
# Outline: as §1
# [5] = biological target: Neu5Ac(a2-3)Gal(b1-4)[Fuc(a1-3)]GlcNAc
# Outline: as §1
# [6] = biological target: Neu5Ac(a2-3)Gal(b1-4)[Fuc(a1-3)]GlcNAc(b1-2)Man
# Outline: as §1
# [7] = biological target: Neu5Ac(a2-3)Gal(b1-4)[Fuc(a1-3)]GlcNAc(b1-3)Gal
# Outline: as §1
# [8] = biological target: Neu5Ac(a2-3)Gal(b1-4)[Fuc(a1-3)]GlcNAc(b1-3)Gal(b1-4)GlcNAc
# Outline: as §1
# [9] = biological target: Neu5Ac(a2-3)Gal(b1-4)[Fuc(a1-3)]GlcNAc(b1-3)Gal(b1-4)[Fuc(a1-3)]GlcNAc(b1-3)Gal(b1-4)[Fuc(a1-3)]GlcNAc
# Outline: as §1
# [10] = biological target: Neu5Ac(a2-3)Gal(b1-4)[Fuc(a1-3)]GlcNAc(b1-3)GalNAc
# Outline: as §1
# [11] = biological target: Neu5Ac(a2-3)Gal(b1-4)[Fuc(a1-3)]GlcNAc(b1-6)[Gal(b1-3)]GalNAc
# Outline: as §1
# [12] = biological target: Neu5Ac(a2-3)Gal(b1-4)[Fuc(a1-3)]GlcNAc(b1-6)[Neu5Ac(a2-3)Gal(b1-3)]GalNAc
# Outline: as §1
# [13] = biological target: Neu5Ac(a2-3)Gal(b1-4)[Fuc(a1-3)]GlcNAc6S
# Outline: as §1
# [14] = biological target: Neu5Ac(a2-3)Gal6S(b1-4)GlcNAc
# Outline: as §1
# [15] = biological target: Neu5Ac(a2-3)Gal6S(b1-4)[Fuc(a1-3)]GlcNAc
# Outline: as §1
# Neu5Ac(a2-3)GalNAc = biological target: Neu5Ac(a2-3)GalNAc
# Outline: as §1
# [16] = biological target: Neu5Ac(a2-3)GalNAc(b1-4)GlcNAc
# Outline: as §1
# [17] = biological target: Neu5Ac(a2-3)[GalNAc(b1-4)]Gal(b1-4)Glc
# Outline: as §1
# [18] = biological target: Neu5Ac(a2-3)[GalNAc(b1-4)]Gal(b1-4)GlcNAc
# Outline: as §1
# [19] = biological target: Neu5Ac(a2-3)[GalNAc(b1-4)]Gal(b1-4)GlcNAc(b1-3)GalNAc
# Outline: as §1
# [20] = biological target: Neu5Ac(a2-3)[Neu5Ac(a2-6)]GalNAc
# Outline: as §1
# Neu5Ac(a2-6)Gal = biological target: Neu5Ac(a2-6)Gal
# Outline: as §1
# [21] = biological target: Neu5Ac(a2-6)Gal(b1-3)GlcNAc(b1-3)[Gal(b1-4)GlcNAc(b1-6)]Gal(b1-4)Glc
# Outline: as §1
# Neu5Ac(a2-6)Gal(b1-4)Glc = biological target: Neu5Ac(a2-6)Gal(b1-4)Glc
# Outline: as §1
# [22] = biological target: Neu5Ac(a2-6)Gal(b1-4)GlcNAc
# Outline: as §1
# [23] = biological target: Neu5Ac(a2-6)Gal(b1-4)GlcNAc(b1-2)Man
# Outline: as §1
# [24] = biological target: Neu5Ac(a2-6)Gal(b1-4)GlcNAc(b1-2)Man(a1-3)Man(b1-4)GlcNAc(b1-4)GlcNAc
# Outline: as §1
# [25] = biological target: Neu5Ac(a2-6)Gal(b1-4)GlcNAc(b1-2)Man(a1-3)[Gal(b1-4)GlcNAc(b1-2)Man(a1-6)]Man(b1-4)GlcNAc(b1-4)GlcNAc
# Outline: as §1
# [26] = biological target: Neu5Ac(a2-6)Gal(b1-4)GlcNAc(b1-2)Man(a1-3)[GlcNAc(b1-2)Man(a1-6)]Man(b1-4)GlcNAc(b1-4)GlcNAc
# Outline: as §1
# [27] = biological target: Neu5Ac(a2-6)Gal(b1-4)GlcNAc(b1-2)Man(a1-3)[GlcNAc(b1-4)][Neu5Ac(a2-6)Gal(b1-4)GlcNAc(b1-2)Man(a1-6)]Man(b1-4)GlcNAc(b1-4)GlcNAc
# Outline: as §1
# [28] = biological target: Neu5Ac(a2-6)Gal(b1-4)GlcNAc(b1-2)Man(a1-3)[Man(a1-6)]Man(b1-4)GlcNAc(b1-4)GlcNAc
# Outline: as §1
# [29] = biological target: Neu5Ac(a2-6)Gal(b1-4)GlcNAc(b1-2)Man(a1-3)[Neu5Ac(a2-3)Gal(b1-4)GlcNAc(b1-2)Man(a1-6)]Man(b1-4)GlcNAc(b1-4)GlcNAc
# Outline: as §1
# [30] = biological target: Neu5Ac(a2-6)Gal(b1-4)GlcNAc(b1-2)Man(a1-3)[Neu5Ac(a2-6)Gal(b1-4)GlcNAc(b1-2)Man(a1-6)]Man(b1-4)GlcNAc(b1-4)GlcNAc
# Outline: as §1
# [31] = biological target: Neu5Ac(a2-6)Gal(b1-4)GlcNAc(b1-2)Man(a1-3)[Neu5Ac(a2-6)Gal(b1-4)GlcNAc(b1-2)Man(a1-6)]Man(b1-4)GlcNAc(b1-4)[Fuc(a1-6)]GlcNAc
# Outline: as §1
# [32] = biological target: Neu5Ac(a2-6)Gal(b1-4)GlcNAc(b1-2)Man(a1-6)Man(b1-4)GlcNAc(b1-4)GlcNAc
# Outline: as §1
# [33] = biological target: Neu5Ac(a2-6)Gal(b1-4)GlcNAc(b1-2)Man(a1-6)[Gal(b1-4)GlcNAc(b1-2)Man(a1-3)]Man(b1-4)GlcNAc(b1-4)GlcNAc
# Outline: as §1
# [34] = biological target: Neu5Ac(a2-6)Gal(b1-4)GlcNAc(b1-2)Man(a1-6)[GlcNAc(b1-2)Man(a1-3)]Man(b1-4)GlcNAc(b1-4)GlcNAc
# Outline: as §1
# [35] = biological target: Neu5Ac(a2-6)Gal(b1-4)GlcNAc(b1-2)Man(a1-6)[Man(a1-3)]Man(b1-4)GlcNAc(b1-4)GlcNAc
# Outline: as §1
# [36] = biological target: Neu5Ac(a2-6)Gal(b1-4)GlcNAc(b1-2)[Neu5Ac(a2-6)Gal(b1-4)GlcNAc(b1-4)]Man(a1-3)[GlcNAc(b1-4)][Neu5Ac(a2-6)Gal(b1-4)GlcNAc(b1-2)[Neu5Ac(a2-6)Gal(b1-4)GlcNAc(b1-6)]Man(a1-6)]Man(b1-4)GlcNAc(b1-4)GlcNAc
# Outline: as §1
# [37] = biological target: Neu5Ac(a2-6)Gal(b1-4)GlcNAc(b1-2)[Neu5Ac(a2-6)Gal(b1-4)GlcNAc(b1-4)]Man(a1-3)[GlcNAc(b1-4)][Neu5Ac(a2-6)Gal(b1-4)GlcNAc(b1-4)Man(a1-6)]Man(b1-4)GlcNAc(b1-4)GlcNAc
# Outline: as §1
# [38] = biological target: Neu5Ac(a2-6)Gal(b1-4)GlcNAc(b1-2)[Neu5Ac(a2-6)Gal(b1-4)GlcNAc(b1-6)]Man(a1-6)[Neu5Ac(a2-6)Gal(b1-4)GlcNAc(b1-2)Man(a1-3)][GlcNAc(b1-4)]Man(b1-4)GlcNAc(b1-4)GlcNAc
# Outline: as §1
# [39] = biological target: Neu5Ac(a2-6)Gal(b1-4)GlcNAc(b1-3)Gal(b1-3)GlcNAc
# Outline: as §1
# [40] = biological target: Neu5Ac(a2-6)Gal(b1-4)GlcNAc(b1-3)Gal(b1-4)GlcNAc
# Outline: as §1
# [41] = biological target: Neu5Ac(a2-6)Gal(b1-4)GlcNAc(b1-3)Gal(b1-4)GlcNAc(b1-2)Man(a1-3)[Neu5Ac(a2-6)Gal(b1-4)GlcNAc(b1-3)Gal(b1-4)GlcNAc(b1-2)Man(a1-6)]GalNAc
# Outline: as §1
# [42] = biological target: Neu5Ac(a2-6)Gal(b1-4)GlcNAc(b1-3)Gal(b1-4)GlcNAc(b1-3)Gal(b1-4)GlcNAc
# Outline: as §1
binder,measurement,setting,value
B1,glycan array binding signal (z-score),[1],-1.06
same,glycan array binding signal (z-score),[2],2.02
same,glycan array binding signal (z-score),[3],1.19
same,glycan array binding signal (z-score),[4],-0.502
same,glycan array binding signal (z-score),[5],-0.583
same,glycan array binding signal (z-score),[6],0.582
same,glycan array binding signal (z-score),[7],-1.08
same,glycan array binding signal (z-score),[8],0.621
same,glycan array binding signal (z-score),[9],0.072
same,glycan array binding signal (z-score),[10],2.77
same,glycan array binding signal (z-score),[11],0.882
same,glycan array binding signal (z-score),[12],0.635
same,glycan array binding signal (z-score),[13],-0.73
same,glycan array binding signal (z-score),[14],0.151
same,glycan array binding signal (z-score),[15],-1.1
same,glycan array binding signal (z-score),Neu5Ac(a2-3)GalNAc,0.02
same,glycan array binding signal (z-score),[16],-1.32
same,glycan array binding signal (z-score),[17],-0.796
same,glycan array binding signal (z-score),[18],-0.578
same,glycan array binding signal (z-score),[19],-0.449
same,glycan array binding signal (z-score),[20],0.448
same,glycan array binding signal (z-score),Neu5Ac(a2-6)Gal,-0.159
same,glycan array binding signal (z-score),[21],0.152
same,glycan array binding signal (z-score),Neu5Ac(a2-6)Gal(b1-4)Glc,-0.538
same,glycan array binding signal (z-score),[22],-0.837
same,glycan array binding signal (z-score),[23],0.122
same,glycan array binding signal (z-score),[24],0.03
same,glycan array binding signal (z-score),[25],-0.103
same,glycan array binding signal (z-score),[26],-0.367
same,glycan array binding signal (z-score),[27],-0.17
same,glycan array binding signal (z-score),[28],-0.151
same,glycan array binding signal (z-score),[29],-1.1
same,glycan array binding signal (z-score),[30],-0.21
same,glycan array binding signal (z-score),[31],-0.435
same,glycan array binding signal (z-score),[32],-0.621
same,glycan array binding signal (z-score),[33],-0.832
same,glycan array binding signal (z-score),[34],-0.98
same,glycan array binding signal (z-score),[35],-0.427
same,glycan array binding signal (z-score),[36],0.552
same,glycan array binding signal (z-score),[37],0.125
same,glycan array binding signal (z-score),[38],-1.55
same,glycan array binding signal (z-score),[39],-0.948
same,glycan array binding signal (z-score),[40],-0.557
same,glycan array binding signal (z-score),[41],1.53
same,glycan array binding signal (z-score),[42],-0.785

# Part of the list above, bar-delimited.
binder | measurement | setting | value
B1 | glycan array binding signal (z-score) | [35] | -0.427
same | glycan array binding signal (z-score) | [36] | 0.552
